Source: publication doi:10.1101/823146 (bioRxiv, 2019)
These are yes or no findings as the source states them, for the method shown. In cells and extracts the contact can be indirect. Some entries that bind do so weakly or less than the wild type.

Target: T1, OmpA (E. coli (endogenous in E. coli cells)) (UniProt P0A910)
T1 sequence: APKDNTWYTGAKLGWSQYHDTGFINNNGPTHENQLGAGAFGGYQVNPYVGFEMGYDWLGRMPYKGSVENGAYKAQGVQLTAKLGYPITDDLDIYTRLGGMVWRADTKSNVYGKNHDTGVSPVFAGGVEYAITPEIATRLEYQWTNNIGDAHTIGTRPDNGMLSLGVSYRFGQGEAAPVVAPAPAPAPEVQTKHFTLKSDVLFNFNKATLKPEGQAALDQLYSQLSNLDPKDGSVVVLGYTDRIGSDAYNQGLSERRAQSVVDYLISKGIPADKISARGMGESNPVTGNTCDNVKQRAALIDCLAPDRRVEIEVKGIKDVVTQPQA
Assay: cross-linking

binding: binds
B1: RcsF (endogenous) (protein, UniProt P69411 16-134)
chain: CSMLSRSPVEPVQSTAPQPKAEPAKPKAPRATPVRIYTNAEELVGKPFRDLGEVSGDSCQASNQDSPPSIPTARKRMQINASKMKANAVLLHSCEVTSGTPGCYRQAVCIGSALNITAK
modifications: lipid anchor (outer membrane lipoprotein)
